Record: PubChem BioAssay AID1259254 (NCATS, 2017)
Purpose: 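Genome-wide screen for genes that prevent DNA re-replication in cancer cells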 (primary screen). Cell system: human HCT116 colorectal cancer cells. Knock-down reagent: single siRNA against human genes. Time to read-out: 3 days. Measurement: 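Nuclei stained with Hoechst and imaged; cell-cycle phase assigned by DNA content; G2 share scaled per plate, non-targeting siRNA 0%, GMNN siRNA 100%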. Reading the numbers: G2 robust z-score: higher = more G2 cells, more excess DNA replication. Call rule: 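Active siRNAs have a G2 robust z of 5 or more median absolute deviations over the median, which in these data means about 38% or higher of GMNN control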.
This is an unselected part of about 59,000 reagents tested. About 1,550 of them (2.6%) count as active. 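G2 share is only a proxy for re-replication; each gene was hit by three separate siRNAs, and active genes were retested.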 A number with no mark means an inactive call. Reagents against one gene are numbered here. Further read-outs or replicates are left out here. Not stated in the record: the amount of reagent.

ZGPAT (zinc finger CCCH-type and G-patch domain containing) #1: G2 robust z-score = -0.792
ZGPAT (zinc finger CCCH-type and G-patch domain containing) #2: G2 robust z-score = 4.89
ZGPAT (zinc finger CCCH-type and G-patch domain containing) #3: G2 robust z-score = -0.208
PHYKPL (5-phosphohydroxy-L-lysine phospho-lyase) #1: G2 robust z-score = -0.589
PHYKPL (5-phosphohydroxy-L-lysine phospho-lyase) #2: G2 robust z-score = 0.921
PHYKPL (5-phosphohydroxy-L-lysine phospho-lyase) #3: G2 robust z-score = 2.57

2 entries from above, sorted by “G2 robust z-score”, descending.
ZGPAT (zinc finger CCCH-type and G-patch domain containing) #2: G2 robust z-score = 4.89
ZGPAT (zinc finger CCCH-type and G-patch domain containing) #3: G2 robust z-score = -0.208

The list goes on.
B4GALNT2 #1: G2 robust z-score = 2.62
B4GALNT2 #2: G2 robust z-score = 7.96 (active)
B4GALNT2 #3: G2 robust z-score = -0.957
ART4 (ADP-ribosyltransferase 4 (inactive) (Dombrock blood group)) #1: G2 robust z-score = 0.928
ART4 (ADP-ribosyltransferase 4 (inactive) (Dombrock blood group)) #2: G2 robust z-score = -0.598
ART4 (ADP-ribosyltransferase 4 (inactive) (Dombrock blood group)) #3: G2 robust z-score = 5.03 (active)
